## Small-molecule microarray binding calls

Source: the ROBIN nucleic acid binder screens (doi:10.1002/anie.202211358).

Oligonucleotides screened, 5′ to 3′:
PreQ1: PreQ1 riboswitch RNA pseudoknot, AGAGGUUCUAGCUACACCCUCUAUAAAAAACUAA. From B. subtilis. About 24,000 compounds screened, about 170 hits.
TPP: TPP riboswitch RNA three-way junction, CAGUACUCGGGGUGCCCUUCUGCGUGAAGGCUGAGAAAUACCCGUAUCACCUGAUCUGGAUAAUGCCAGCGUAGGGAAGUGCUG. About 24,000 compounds screened, about 160 hits.
SAM-II: SAM-II riboswitch RNA pseudoknot, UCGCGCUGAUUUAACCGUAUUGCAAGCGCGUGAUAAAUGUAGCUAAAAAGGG. About 21,000 compounds screened, about 200 hits.

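Each compound is printed as two spots on a slide made to bind it covalently, so it has no test concentration; the read-out is fluorescence of the bound, labelled oligonucleotide. The data file lists only calls. An earlier report of the laboratory on the PreQ1, TPP and SAM-II riboswitches (doi:10.1038/s41467-019-09493-3) used 1 µM RNA for 2 h and required a mean Z-score above 3 (spot signal-to-noise against the whole library), a score well above that on a control array, and duplicate spots agreeing (coefficient of variation under 100); it then also set aside compounds that hit other targets, which this list keeps. The cut-offs behind this list may differ. These are primary screening calls, not affinities; a compound without a hit may have attached poorly or may still bind in solution.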 A compound is marked active if it was called a hit and inactive if it was screened but was not. This is an unselected part of the compounds tested. A dash means that no call is listed here.

| # | SMILES | PreQ1 | TPP | SAM-II |
|---|---|---|---|---|
| 1 | `Cc1cnn(CCN(C)Cc2nnc(CC3CCNCC3)n2-c2ccccc2)c1` | inactive | inactive | inactive |
| 2 | `Cc1ccc(CN2CCN(C(=O)CN)[C@H]3CS(=O)(=O)C[C@H]32)o1` | inactive | inactive | inactive |
| 3 | `CCOC(=O)c1cnc2c(C)cc(C)cc2c1Nc1ccc(N2CCOCC2)cc1` | inactive | inactive | inactive |
| 4 | `COCCC1(CO)CCCN(CC(=O)N2CCc3ccccc32)C1` (stereo unspecified) | inactive | inactive | inactive |
| 5 | `Cc1ccc(Cn2nnc(C(=O)Nc3cc(Cl)ccc3C)c2N)cc1` | inactive | inactive | inactive |
| 6 | `CC(C)(C)C(=O)Nc1ccc(NC(=O)C(C)(C)C)cc1` | inactive | inactive | inactive |
| 7 | `NC(Cc1ccc(O)cc1)c1nc2ccccc2[nH]1` (stereo unspecified) | inactive | inactive | inactive |
| 8 | `COCc1nc(-c2nonc2N)no1` | inactive | inactive | inactive |
| 9 | `COc1cccc(CCN[C@H]2CS(=O)(=O)C[C@@H]2S(=O)(=O)c2ccc(F)cc2)c1` | inactive | inactive | - |
| 10 | `Cn1ccnc1C(NC(=O)c1cn(CCN2CCNCC2)nn1)C1CC1` (stereo unspecified) | inactive | inactive | inactive |
| 11 | `Cc1ccccc1CN1c2ccccc2C2=C(C(c3ccccc3)C(C#N)=C(N)O2)S1(=O)=O` (stereo unspecified) | inactive | inactive | - |
| 12 | `CCCc1nc2sc3c(NCCN4CCOCC4)ncnc3c2c2c1CCCC2` | inactive | inactive | inactive |
| 13 | `O=C(CCc1cc2n(n1)CCNC2)N1CCCCC1CCn1cccn1` (stereo unspecified) | inactive | inactive | inactive |
| 14 | `O=C(O)c1ccc(Nc2nc3ccc(Cl)cc3n3cnnc23)cc1` | inactive | inactive | - |
| 15 | `O=[N+]([O-])c1ccc(SCC#CCO)cc1` | inactive | inactive | inactive |
| 16 | `O=C(Nc1ccc(Br)c2ccccc12)c1ccc2ccccc2c1O` | inactive | inactive | inactive |
| 17 | `CC(=O)c1cccc(Nc2cc(C)nc3c(C)cc(C)cc23)c1` | inactive | inactive | inactive |
| 18 | `Cc1ccccc1Nc1ncnc2c1nc1n2CCCCC1` | inactive | inactive | - |
| 19 | `Nc1nonc1C(=O)NCCNCc1ccc(F)cc1` | inactive | inactive | inactive |
| 20 | `Cc1ccc(Nc2c(-c3ccc(Br)cc3)nc3cnccn23)cc1` | inactive | inactive | - |
| 21 | `CC(NCC(O)Cn1c2ccccc2c2ccccc21)C(=O)O` (stereo unspecified) | inactive | inactive | inactive |
| 22 | `C(#Cc1ccccc1)CNC1C2CC3CC(C2)CC1C3.Cl` (stereo unspecified) | inactive | inactive | inactive |
| 23 | `CN(C)c1nc(N)nc(COc2ccccc2F)n1` | inactive | inactive | inactive |
| 24 | `Cc1ccc(C(C)NCc2cn(CCC(N)=O)c3ccccc23)cc1C` (stereo unspecified) | inactive | inactive | inactive |
| 25 | `CS(=O)(=O)N1C[C@H]2CNC[C@@]2(C(=O)NC2CCOCC2)C1` | inactive | inactive | inactive |
| 26 | `CC(C)(C)N1CC(OC(N)=O)C1` | inactive | inactive | inactive |
| 27 | `COCC(=O)NCC=Cc1ccc2ncnc(Nc3ccc(Oc4ccc(C)nc4)c(C)c3)c2c1` | inactive | inactive | inactive |
| 28 | `Cc1c(NCc2ccccn2)cccc1C(=O)NCCSc1nnnn1C` | inactive | inactive | inactive |
| 29 | `CCc1ccc(-c2cn([C@H](CO)CC(C)C)nn2)nc1` | inactive | inactive | inactive |
| 30 | `CC(C)(C)c1csc(N)n1` | inactive | inactive | inactive |
| 31 | `Cc1ccc(S(=O)(=O)[C@H]2CS(=O)(=O)C[C@@H]2NCc2ccc(F)cc2)cc1` | inactive | inactive | - |
| 32 | `Cc1ccc2nc(C3=C(N)N(c4ccc(Br)cc4)CC3=O)[nH]c2c1` | inactive | inactive | - |
| 33 | `Cc1nn(-c2cc(N3CCOCC3)ncn2)c(C)c1CCC(=O)N1CCN(CCO)CC1` | inactive | inactive | inactive |
| 34 | `COc1ccc(C2CC(C(F)(F)F)n3nc(C(=O)Nc4cccc(C(C)O)c4)cc3N2)cc1` (stereo unspecified) | inactive | inactive | inactive |
| 35 | `CCN1CCc2nc3sc(C(=O)OC)c(N)c3cc2C1` | inactive | inactive | inactive |
| 36 | `Fc1ccc([C@@H]2CCNC[C@@H]2COc2ccc3c(c2)OCO3)cc1` | inactive | inactive | inactive |
| 37 | `OCCn1nc(C2CCOCC2)nc1-c1ccc(C2CCCO2)s1` (stereo unspecified) | inactive | inactive | inactive |
| 38 | `OC(COc1cccc2ccccc12)CN1CCN(c2ccc(Cl)cc2)CC1` (stereo unspecified) | inactive | inactive | inactive |
| 39 | `Cc1cc(S(=O)(=O)[C@H]2CS(=O)(=O)C[C@@H]2NCCc2ccc(F)cc2)ccc1F` | inactive | inactive | - |
| 40 | `O=C(Nc1ccc2scnc2c1)N1CCN([C@H]2CCCC[C@@H]2O)CC1` | inactive | inactive | inactive |
| 41 | `OCCn1nc(Cc2c(Cl)cccc2Cl)nc1CC1COCCN1` (stereo unspecified) | inactive | inactive | inactive |
| 42 | `CCOC(=O)c1csc(-c2ccc(COC(=O)c3ccccc3)o2)n1` | inactive | inactive | inactive |
| 43 | `O=C(O)C(=O)Nc1nc[nH]n1` | inactive | inactive | inactive |
| 44 | `Fc1cccc(C2(CNC3CCOC4(CCOCC4)C3)CCOCC2)c1` (stereo unspecified) | inactive | inactive | inactive |
| 45 | `CCCCNc1oc(-c2cccc(C)c2)nc1S(=O)(=O)c1ccccc1` | inactive | inactive | - |
| 46 | `Cc1ccccc1-c1nc2cc(NCc3cccs3)ccc2o1` | inactive | inactive | inactive |
| 47 | `N#CC1=C(N)Oc2ccc3ccccc3c2C1c1ccc(F)cc1` (stereo unspecified) | inactive | inactive | inactive |
| 48 | `Clc1ccc(-c2ccc(CNCC3CCCO3)o2)cc1` (stereo unspecified) | inactive | inactive | - |
| 49 | `Cl.NCCOc1ccccc1Cc1ccccc1` | active | inactive | inactive |
| 50 | `O=C1CCCN1CCCc1nc(-c2ccncc2)nn1CCO` | inactive | inactive | inactive |
| 51 | `Nc1n[nH]c(Nc2ccccc2)n1` | inactive | inactive | active |
| 52 | `Clc1ccc(SCNc2ccccc2Cl)cc1` | inactive | inactive | inactive |
| 53 | `N#Cc1c(F)ccc(N)c1F` | inactive | inactive | inactive |
| 54 | `CCC(CO)N(Cc1ccco1)C(=O)C1(c2ccc(C)cc2)CC1` (stereo unspecified) | inactive | inactive | inactive |
| 55 | `CCc1cn[nH]c1C1CCN(C(=O)c2cc(C(C)C)nc(N)n2)CC1` | inactive | inactive | inactive |
| 56 | `Cc1cc(O)c2c(c1)C(=O)c1cccc(O)c1C2=O` | inactive | inactive | inactive |
| 57 | `Cc1nnc2c3ccccc3nc(Nc3ccccc3F)n12` | inactive | inactive | - |
| 58 | `c1coc(CNc2ncnc3c2sc2nc(N4CCOCC4)c4c(c23)CCCC4)c1` | inactive | inactive | inactive |

The last 5 entries again:

SMILES,PreQ1,TPP,SAM-II
CCC(CO)N(Cc1ccco1)C(=O)C1(c2ccc(C)cc2)CC1 (stereo unspecified),inactive,inactive,inactive
CCc1cn[nH]c1C1CCN(C(=O)c2cc(C(C)C)nc(N)n2)CC1,inactive,inactive,inactive
Cc1cc(O)c2c(c1)C(=O)c1cccc(O)c1C2=O,inactive,inactive,inactive
Cc1nnc2c3ccccc3nc(Nc3ccccc3F)n12,inactive,inactive,-
c1coc(CNc2ncnc3c2sc2nc(N4CCOCC4)c4c(c23)CCCC4)c1,inactive,inactive,inactive